Values from PubChem BioAssay AID1259254 (NCATS, 2017).
Test: 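Gene knock-downs that lead to re-replication, shown by excess G2 DNA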 (primary screen). Cells: human HCT116 colorectal cancer cells. Reagents: single siRNA against human genes. Duration: 3 days. Measurement: 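Imaged Hoechst DNA stain sorts each cell into a cycle phase by DNA amount; per plate, G2 fraction set to 0% for non-targeting and 100% for GMNN siRNA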. Scale: G2 robust z-score: higher = more G2 cells, more excess DNA replication. Rule for the call: 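An siRNA counts as active if its G2 robust z-score lies at least 5 MADs above the screen median; here such calls match roughly 38% of GMNN control or more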.
In all, the deposit lists about 59,000 reagents; below is a random part of them. About 1,550 of all reagents (2.6%) count as active. 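G2 share is only a proxy for re-replication; each gene was hit by three separate siRNAs, and active genes were retested.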 Reagents against one gene are numbered here. Further read-outs or replicates are left out here. Reagent sequences are not shown. Not stated in the record: the amount of reagent.

G2 robust z-score, by gene and reagent
ZNF845 (GeneID 91664): #1 -0.101 inactive; #2 -0.853 inactive; #3 0.586 inactive
EARS2 (GeneID 124454): #1 0.275 inactive; #2 2.49 inactive; #3 0.155 inactive
PRPSAP2 (GeneID 5636): #1 0.664 inactive; #2 -1.52 inactive; #3 0.886 inactive
VAV1 (GeneID 7409): #1 2.08 inactive; #2 -0.847 inactive; #3 -0.109 inactive
HOATZ (GeneID 399949): #1 4.66 inactive; #2 4 inactive; #3 -0.259 inactive
RRH (GeneID 10692): #1 -0.249 inactive; #2 1.63 inactive; #3 -0.711 inactive
PFAS (GeneID 5198): #1 1.76 inactive; #2 0.568 inactive; #3 -1.14 inactive
PLCH2 (GeneID 9651): #1 1.3 inactive; #2 -0.705 inactive; #3 0.336 inactive
CCNQP1 (GeneID 339521): #1 0.866 inactive; #2 0.195 inactive; #3 -0.419 inactive
SLC2A6 (GeneID 11182): #1 0.53 inactive; #2 -0.824 inactive; #3 1.06 inactive

Individual results from the entries so far:
Under “outcome”, RRH (GeneID 10692) #1 shows inactive
Result for HOATZ (GeneID 399949) #1 under “outcome”: inactive
PFAS (GeneID 5198) #2, outcome: inactive
For “outcome”, PRPSAP2 (GeneID 5636) #2 reads inactive
SLC2A6 (GeneID 11182) #3, G2 robust z-score → 1.06
PLCH2 (GeneID 9651) #1, G2 robust z-score → 1.3

More entries follow.
G2 robust z-score, by gene and reagent
LINC01118 (GeneID 388948): #1 -1.03 inactive; #2 0.057 inactive; #3 -0.57 inactive
PGAP6 (GeneID 58986): #1 -0.425 inactive; #2 -0.947 inactive; #3 3.31 inactive
ALG1 (GeneID 56052): #1 -0.161 inactive; #2 1.38 inactive; #3 -0.794 inactive
PPIL6 (GeneID 285755): #1 0.945 inactive; #2 -0.381 inactive; #3 1.97 inactive
SHISA9 (GeneID 729993): #1 0.135 inactive; #2 -0.118 inactive; #3 1.07 inactive; #4 -0.471 inactive; #5 2.95 inactive; #6 0.168 inactive
SPAG1 (GeneID 6674): #1 0.692 inactive; #2 1.26 inactive; #3 1.11 inactive
FGB (GeneID 2244): #1 0.335 inactive; #2 1.78 inactive; #3 -0.782 inactive
SHE (GeneID 126669): #1 0.646 inactive; #2 -0.00835 inactive; #3 1.06 inactive
PAGE5 (GeneID 90737): #1 0.402 inactive; #2 3.39 inactive; #3 0.0314 inactive
HHLA2 (GeneID 11148): #1 -0.0799 inactive; #2 0.984 inactive; #3 -1.09 inactive
LINC02120 (GeneID 340113): #1 -0.784 inactive; #2 -0.93 inactive; #3 -0.389 inactive
EMX1 (GeneID 2016): #1 1.23 inactive; #2 0.657 inactive; #3 -0.94 inactive
ESPN (GeneID 83715): #1 -0.879 inactive; #2 -0.801 inactive; #3 -0.841 inactive
FBXO21 (GeneID 23014): #1 -1.37 inactive; #2 2.57 inactive; #3 0.945 inactive
LINC01465 (GeneID 283416): #1 0.733 inactive; #2 -0.373 inactive; #3 -0.645 inactive
C3 (GeneID 718): #1 1.32 inactive; #2 1.21 inactive; #3 -0.576 inactive
NYAP1 (GeneID 222950): #1 -0.234 inactive; #2 -0.222 inactive; #3 -0.632 inactive
ZRANB2 (GeneID 9406): #1 -0.46 inactive; #2 -0.198 inactive; #3 -0.0604 inactive
